The supplement of paper PMC10849652
The other results are listed elsewhere or left out.

Sequences of proteins named here, by UniProt entry; tags and fusion partners are left off. A change or cut given only in a name is not applied to a line headed by its entry.
UniProt Q9Y6I3: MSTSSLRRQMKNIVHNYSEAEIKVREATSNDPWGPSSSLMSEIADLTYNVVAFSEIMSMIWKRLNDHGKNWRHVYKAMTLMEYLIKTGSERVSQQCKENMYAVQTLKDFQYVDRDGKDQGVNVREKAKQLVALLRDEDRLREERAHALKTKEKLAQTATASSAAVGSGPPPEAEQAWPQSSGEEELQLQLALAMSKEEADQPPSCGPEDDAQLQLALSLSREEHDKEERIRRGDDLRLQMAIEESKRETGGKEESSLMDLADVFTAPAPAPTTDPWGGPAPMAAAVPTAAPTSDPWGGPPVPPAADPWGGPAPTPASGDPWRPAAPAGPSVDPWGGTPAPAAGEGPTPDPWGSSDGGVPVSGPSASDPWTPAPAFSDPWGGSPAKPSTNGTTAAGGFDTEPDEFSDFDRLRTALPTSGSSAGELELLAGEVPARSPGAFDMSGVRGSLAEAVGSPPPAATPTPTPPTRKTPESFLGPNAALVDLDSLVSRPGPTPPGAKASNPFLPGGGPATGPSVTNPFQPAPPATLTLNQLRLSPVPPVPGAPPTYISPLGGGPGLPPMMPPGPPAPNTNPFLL
UniProt Q9P0I2: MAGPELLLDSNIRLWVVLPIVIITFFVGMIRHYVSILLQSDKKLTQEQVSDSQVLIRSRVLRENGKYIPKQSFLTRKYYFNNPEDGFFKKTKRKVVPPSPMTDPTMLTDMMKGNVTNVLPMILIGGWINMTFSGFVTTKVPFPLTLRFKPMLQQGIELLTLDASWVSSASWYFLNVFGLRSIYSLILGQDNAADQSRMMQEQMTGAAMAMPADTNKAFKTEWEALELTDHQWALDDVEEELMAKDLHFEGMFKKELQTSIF
UniProt Q9UI10, whole entry, looked up: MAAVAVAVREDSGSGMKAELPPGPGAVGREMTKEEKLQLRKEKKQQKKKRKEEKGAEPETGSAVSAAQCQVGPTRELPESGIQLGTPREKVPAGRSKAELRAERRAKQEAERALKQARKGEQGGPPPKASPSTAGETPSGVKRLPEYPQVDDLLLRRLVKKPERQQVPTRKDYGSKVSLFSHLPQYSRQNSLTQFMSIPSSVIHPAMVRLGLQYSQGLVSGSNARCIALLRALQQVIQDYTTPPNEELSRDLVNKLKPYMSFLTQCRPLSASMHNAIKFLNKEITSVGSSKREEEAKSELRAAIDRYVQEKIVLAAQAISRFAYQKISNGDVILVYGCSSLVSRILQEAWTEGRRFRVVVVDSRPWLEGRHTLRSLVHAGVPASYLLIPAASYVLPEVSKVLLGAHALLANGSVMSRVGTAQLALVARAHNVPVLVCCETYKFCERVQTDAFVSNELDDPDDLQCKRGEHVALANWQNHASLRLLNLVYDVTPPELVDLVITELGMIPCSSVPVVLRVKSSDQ
UniProt Q96RQ1: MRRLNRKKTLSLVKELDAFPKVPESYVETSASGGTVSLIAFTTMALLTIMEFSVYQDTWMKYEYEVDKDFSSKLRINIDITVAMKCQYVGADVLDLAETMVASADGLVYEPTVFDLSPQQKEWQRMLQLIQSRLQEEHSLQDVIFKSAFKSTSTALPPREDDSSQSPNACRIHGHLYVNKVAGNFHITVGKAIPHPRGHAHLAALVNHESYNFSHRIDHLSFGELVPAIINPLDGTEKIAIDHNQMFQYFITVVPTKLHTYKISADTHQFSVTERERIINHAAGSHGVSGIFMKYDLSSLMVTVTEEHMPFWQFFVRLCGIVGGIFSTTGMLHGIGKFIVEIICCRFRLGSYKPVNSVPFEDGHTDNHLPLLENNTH
UniProt Q8TE02: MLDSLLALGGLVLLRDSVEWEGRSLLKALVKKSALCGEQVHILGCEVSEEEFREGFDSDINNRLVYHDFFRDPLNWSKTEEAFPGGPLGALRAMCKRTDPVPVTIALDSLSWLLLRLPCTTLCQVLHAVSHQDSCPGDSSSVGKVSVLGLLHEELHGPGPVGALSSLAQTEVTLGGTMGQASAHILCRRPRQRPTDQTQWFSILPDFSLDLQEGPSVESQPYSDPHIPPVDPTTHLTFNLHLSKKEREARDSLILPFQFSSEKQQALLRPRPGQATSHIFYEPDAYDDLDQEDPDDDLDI
UniProt Q2NKX8: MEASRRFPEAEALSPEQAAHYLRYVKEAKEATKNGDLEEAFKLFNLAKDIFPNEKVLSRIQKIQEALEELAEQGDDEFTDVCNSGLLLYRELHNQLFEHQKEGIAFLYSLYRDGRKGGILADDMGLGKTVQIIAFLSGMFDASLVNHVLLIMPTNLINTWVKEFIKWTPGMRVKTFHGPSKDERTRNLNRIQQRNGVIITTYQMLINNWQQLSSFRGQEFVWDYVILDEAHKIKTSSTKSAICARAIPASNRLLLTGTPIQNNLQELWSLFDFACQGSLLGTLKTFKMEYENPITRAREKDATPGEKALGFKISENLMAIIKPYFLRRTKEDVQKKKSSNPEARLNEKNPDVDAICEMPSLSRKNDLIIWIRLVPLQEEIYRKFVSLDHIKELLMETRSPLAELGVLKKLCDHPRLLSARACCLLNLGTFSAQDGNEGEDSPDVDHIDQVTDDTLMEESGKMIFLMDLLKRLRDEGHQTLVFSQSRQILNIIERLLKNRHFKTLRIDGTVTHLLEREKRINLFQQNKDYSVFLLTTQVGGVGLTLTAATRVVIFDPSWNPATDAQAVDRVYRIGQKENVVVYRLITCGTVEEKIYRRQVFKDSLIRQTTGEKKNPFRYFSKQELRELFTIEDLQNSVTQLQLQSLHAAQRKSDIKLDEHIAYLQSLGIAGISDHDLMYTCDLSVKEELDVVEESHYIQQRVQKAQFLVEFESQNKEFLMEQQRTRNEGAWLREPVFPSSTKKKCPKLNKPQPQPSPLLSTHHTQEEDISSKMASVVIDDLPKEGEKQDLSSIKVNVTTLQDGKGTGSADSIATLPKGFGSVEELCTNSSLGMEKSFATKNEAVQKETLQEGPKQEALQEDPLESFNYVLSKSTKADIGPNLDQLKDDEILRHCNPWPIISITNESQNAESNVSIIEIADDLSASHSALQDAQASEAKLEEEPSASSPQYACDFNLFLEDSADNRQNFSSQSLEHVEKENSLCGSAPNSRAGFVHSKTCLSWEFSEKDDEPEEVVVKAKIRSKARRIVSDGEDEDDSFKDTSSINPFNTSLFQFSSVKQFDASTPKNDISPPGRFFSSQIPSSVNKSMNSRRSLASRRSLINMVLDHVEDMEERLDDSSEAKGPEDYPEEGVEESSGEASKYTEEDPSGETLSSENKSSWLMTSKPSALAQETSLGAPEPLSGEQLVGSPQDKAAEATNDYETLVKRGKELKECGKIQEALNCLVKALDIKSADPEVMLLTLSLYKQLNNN
UniProt Q9UBC2: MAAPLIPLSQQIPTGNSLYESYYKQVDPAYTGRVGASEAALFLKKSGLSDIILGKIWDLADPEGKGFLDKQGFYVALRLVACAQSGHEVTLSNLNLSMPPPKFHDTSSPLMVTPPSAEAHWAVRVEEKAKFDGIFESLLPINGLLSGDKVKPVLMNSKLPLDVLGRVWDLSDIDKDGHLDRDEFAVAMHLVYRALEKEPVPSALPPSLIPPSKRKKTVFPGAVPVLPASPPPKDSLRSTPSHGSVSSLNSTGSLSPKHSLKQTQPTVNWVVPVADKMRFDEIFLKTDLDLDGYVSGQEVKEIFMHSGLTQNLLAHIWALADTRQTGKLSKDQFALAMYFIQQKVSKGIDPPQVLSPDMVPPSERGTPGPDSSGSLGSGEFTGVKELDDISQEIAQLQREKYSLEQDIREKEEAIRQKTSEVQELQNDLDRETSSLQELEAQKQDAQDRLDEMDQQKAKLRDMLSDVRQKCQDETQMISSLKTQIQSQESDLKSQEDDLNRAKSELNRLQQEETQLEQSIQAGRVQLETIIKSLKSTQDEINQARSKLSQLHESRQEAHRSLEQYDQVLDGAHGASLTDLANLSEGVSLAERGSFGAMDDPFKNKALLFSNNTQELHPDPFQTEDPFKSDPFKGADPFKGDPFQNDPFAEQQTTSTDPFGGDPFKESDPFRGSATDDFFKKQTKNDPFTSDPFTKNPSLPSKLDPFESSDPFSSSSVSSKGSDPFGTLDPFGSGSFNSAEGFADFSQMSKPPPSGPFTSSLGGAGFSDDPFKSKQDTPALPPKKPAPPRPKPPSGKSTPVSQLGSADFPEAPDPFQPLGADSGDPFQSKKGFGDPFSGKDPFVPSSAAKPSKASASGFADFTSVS
UniProt Q99613, whole entry, looked up: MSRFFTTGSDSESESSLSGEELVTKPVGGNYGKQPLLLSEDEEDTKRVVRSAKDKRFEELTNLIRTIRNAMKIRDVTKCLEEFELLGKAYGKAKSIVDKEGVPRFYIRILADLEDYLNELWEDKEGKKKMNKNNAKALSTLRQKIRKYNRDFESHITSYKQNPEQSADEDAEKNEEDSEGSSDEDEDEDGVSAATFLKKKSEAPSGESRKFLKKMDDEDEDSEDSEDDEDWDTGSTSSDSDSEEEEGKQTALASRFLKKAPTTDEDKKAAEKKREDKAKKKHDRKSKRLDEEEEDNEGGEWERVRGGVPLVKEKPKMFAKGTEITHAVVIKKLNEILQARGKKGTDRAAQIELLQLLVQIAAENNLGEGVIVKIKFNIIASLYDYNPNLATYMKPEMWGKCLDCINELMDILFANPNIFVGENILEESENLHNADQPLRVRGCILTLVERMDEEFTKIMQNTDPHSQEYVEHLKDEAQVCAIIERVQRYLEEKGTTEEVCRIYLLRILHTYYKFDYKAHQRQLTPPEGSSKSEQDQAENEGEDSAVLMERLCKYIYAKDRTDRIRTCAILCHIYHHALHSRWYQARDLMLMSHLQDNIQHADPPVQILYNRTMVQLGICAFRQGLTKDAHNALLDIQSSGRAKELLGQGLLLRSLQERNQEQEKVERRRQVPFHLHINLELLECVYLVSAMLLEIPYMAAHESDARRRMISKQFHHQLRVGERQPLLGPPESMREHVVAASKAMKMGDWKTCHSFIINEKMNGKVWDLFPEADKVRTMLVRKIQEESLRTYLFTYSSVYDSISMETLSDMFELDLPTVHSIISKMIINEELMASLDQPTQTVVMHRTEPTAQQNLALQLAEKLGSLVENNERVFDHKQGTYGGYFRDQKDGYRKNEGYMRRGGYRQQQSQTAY
UniProt P34913, whole entry, looked up: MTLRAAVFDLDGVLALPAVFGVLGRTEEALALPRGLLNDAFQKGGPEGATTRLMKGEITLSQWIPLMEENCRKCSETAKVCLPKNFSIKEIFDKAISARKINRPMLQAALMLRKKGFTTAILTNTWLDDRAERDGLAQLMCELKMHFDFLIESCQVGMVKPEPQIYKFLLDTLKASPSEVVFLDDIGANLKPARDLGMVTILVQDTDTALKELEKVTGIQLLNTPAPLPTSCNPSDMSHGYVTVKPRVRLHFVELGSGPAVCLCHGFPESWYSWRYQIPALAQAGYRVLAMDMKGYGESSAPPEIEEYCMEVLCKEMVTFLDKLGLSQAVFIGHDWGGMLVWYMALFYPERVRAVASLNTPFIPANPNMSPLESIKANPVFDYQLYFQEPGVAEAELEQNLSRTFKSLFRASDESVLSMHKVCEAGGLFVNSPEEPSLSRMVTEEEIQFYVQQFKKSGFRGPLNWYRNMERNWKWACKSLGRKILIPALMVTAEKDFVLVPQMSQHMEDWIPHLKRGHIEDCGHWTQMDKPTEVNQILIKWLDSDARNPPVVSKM
UniProt O75356: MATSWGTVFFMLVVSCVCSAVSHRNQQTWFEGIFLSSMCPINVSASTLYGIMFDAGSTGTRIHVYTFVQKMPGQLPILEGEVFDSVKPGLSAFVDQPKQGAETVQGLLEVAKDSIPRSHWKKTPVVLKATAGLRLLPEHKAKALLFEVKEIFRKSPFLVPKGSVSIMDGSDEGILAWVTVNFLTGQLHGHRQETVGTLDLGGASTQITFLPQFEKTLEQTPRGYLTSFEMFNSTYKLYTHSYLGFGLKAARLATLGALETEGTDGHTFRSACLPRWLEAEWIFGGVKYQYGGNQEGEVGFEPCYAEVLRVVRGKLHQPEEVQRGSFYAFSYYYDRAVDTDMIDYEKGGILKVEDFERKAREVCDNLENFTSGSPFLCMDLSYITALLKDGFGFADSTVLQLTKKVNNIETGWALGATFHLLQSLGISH
UniProt O43768: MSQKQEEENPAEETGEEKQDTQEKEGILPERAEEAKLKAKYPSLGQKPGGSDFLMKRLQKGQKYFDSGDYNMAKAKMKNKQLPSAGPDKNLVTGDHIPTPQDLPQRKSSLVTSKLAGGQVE
UniProt O75821, whole entry, looked up: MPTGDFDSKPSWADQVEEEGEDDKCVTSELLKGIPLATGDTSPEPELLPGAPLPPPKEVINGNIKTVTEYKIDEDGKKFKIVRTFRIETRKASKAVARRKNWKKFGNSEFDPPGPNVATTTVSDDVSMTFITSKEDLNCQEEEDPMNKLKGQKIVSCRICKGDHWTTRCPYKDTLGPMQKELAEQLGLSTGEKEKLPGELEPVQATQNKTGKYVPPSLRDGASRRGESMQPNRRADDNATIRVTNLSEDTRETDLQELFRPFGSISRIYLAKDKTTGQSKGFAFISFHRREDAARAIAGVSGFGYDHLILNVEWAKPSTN
UniProt Q9NPA8: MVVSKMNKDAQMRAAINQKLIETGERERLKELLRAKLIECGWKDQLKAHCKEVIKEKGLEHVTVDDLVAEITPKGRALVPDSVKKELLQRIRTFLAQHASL

Compound: Cc1nc(Nc2n[nH]c3c2CN(C(=O)N[C@H](CN(C)C)c2ccccc2)C3(C)C)c2sccc2n1
Test: log2 fold change, soluble protein after heating vs DMSO (PISA); higher = thermal stabilisation; K562 lysate, 10 uM; active = over 0.2 and 3.5 SD of the protein, either way, in both replicates (recomputed)
Method in brief: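 Thermal stability, expressed as log-two fold change relative to solvent controls, is given from duplicates. Crude K562 extract in PBS pH 7.4 with 1 mM MgCl2, at 1 mg/mL protein, was treated with 10 μM compound for 30 min and heated in aliquots for 3 min across 48°C-58°C. After pooling, adjustment to 0.5% NP-40 at 4°C and centrifugation at 21,000xg for 90 min, supernatant protein was measured by TMTpro 16plex LC-MS/MS with channel sums equalised.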

log2 fold change, inactive:
EPN1 (UniProt Q9Y6I3) 0.017
EMC3 (UniProt Q9P0I2) 0.008
EIF3K (UniProt Q9UBQ5) -0.034
EMC1 (UniProt Q8N766) -0.013
EMC10 (UniProt Q5UCC4) -0.097
ELP4 (UniProt Q96EB1) 0.003
EPB41L2 (UniProt O43491) 0.014
EIF2B4 (UniProt Q9UI10) -0.005
EPHX1 (UniProt P07099) 0.018
ERGIC2 (UniProt Q96RQ1) -0.033
ERBIN isoform 8 (UniProt Q96RT1) -0.027
EIF3A (UniProt Q14152) 0.008
ELP1 (UniProt O95163) 0.018
ELP5 isoform 4 (UniProt Q8TE02) 0.007
EMP3 (UniProt P54852) 0.094
ELOB (UniProt Q15370) -0.018
EIF2B5 (UniProt Q13144) 0.037
ELAC2 (UniProt Q9BQ52) 0.007
ERCC6L (UniProt Q2NKX8) 0.021
EPS15L1 isoform 2 (UniProt Q9UBC2) -0.011
EMC4 (UniProt Q5J8M3) 0.024
EIF3I (UniProt Q13347) -0.004
EIF3C (UniProt Q99613) 0.006
ELL (UniProt P55199) 0
EPHX2 (UniProt P34913) -0.036
ENTPD5 (UniProt O75356) 0.048
EIF2S2 (UniProt P20042) 0.038
EIF3J (UniProt O75822) 0.001
ENSA isoform 3 (UniProt O43768) -0.011
EIF3G (UniProt O75821) -0.008
ERCC2 (UniProt P18074) -0.016
EIF4G1 (UniProt Q04637) 0.006
EIF3M (UniProt Q7L2H7) -0.019
EPB41L1 (UniProt Q9H4G0) -0.085
ENY2 (UniProt Q9NPA8) -0.002

A stretch from the list above, for reference:
log2 fold change, inactive:
ELP5 isoform 4 (UniProt Q8TE02) 0.007
EMP3 (UniProt P54852) 0.094
ELOB (UniProt Q15370) -0.018
EIF2B5 (UniProt Q13144) 0.037
ELAC2 (UniProt Q9BQ52) 0.007
ERCC6L (UniProt Q2NKX8) 0.021
EPS15L1 isoform 2 (UniProt Q9UBC2) -0.011
EMC4 (UniProt Q5J8M3) 0.024
